These results are taken from article doi:10.1101/2022.10.27.514025.

In assay [1] the target is T1, GNL3/nucleostemin (human (endogenous in K562 and HeLa S3)) (UniProt Q9BVP2).
T1 sequence: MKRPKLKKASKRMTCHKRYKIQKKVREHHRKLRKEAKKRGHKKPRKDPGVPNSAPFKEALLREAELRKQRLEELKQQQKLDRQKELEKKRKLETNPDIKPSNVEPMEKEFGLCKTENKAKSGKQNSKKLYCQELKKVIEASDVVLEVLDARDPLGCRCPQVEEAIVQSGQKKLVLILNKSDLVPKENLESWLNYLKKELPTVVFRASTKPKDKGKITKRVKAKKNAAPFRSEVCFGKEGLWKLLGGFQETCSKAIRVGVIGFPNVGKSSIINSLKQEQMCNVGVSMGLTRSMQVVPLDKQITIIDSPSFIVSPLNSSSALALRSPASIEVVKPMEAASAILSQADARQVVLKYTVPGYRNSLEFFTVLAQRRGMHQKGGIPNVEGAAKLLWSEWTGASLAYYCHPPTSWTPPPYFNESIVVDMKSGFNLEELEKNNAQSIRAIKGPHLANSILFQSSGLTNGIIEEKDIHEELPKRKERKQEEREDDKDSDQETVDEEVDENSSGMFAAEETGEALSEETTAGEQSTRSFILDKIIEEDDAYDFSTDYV
As to the kind of experiment: co-IP.

Assay [2] has as its target T2, ORC2 (human (endogenous in HEK293, K562 and HeLa)) (UniProt Q13416).
T2 sequence: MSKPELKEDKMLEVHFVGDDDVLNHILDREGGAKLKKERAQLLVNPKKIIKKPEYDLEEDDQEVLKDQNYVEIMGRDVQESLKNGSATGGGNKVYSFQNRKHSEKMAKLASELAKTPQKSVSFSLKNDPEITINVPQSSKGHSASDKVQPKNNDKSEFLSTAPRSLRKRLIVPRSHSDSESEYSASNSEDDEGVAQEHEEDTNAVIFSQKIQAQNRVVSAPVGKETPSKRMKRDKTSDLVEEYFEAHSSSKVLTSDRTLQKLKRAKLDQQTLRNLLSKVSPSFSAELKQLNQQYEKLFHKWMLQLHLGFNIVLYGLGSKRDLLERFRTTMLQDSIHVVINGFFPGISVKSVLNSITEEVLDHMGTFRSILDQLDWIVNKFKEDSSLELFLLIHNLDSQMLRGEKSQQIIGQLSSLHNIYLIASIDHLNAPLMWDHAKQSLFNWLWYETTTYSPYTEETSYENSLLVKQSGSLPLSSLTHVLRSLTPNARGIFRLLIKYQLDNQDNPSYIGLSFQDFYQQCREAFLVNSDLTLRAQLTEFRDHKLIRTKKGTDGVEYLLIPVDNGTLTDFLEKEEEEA
As to the kind of experiment: co-IP.

For assay [3], the target named is T2, ORC2 (human (endogenous in HEK293, K562 and HeLa)). Kind of assay: proximity ligation.

Results are given in words; binding and its absence hold for the method and conditions named. In cells and extracts the contact can be indirect. Some entries that bind do so weakly or less than the wild type. For some of these results: Sequences can lack the tags named with a protein.

B1: ORC2 (protein, UniProt Q13416 1-577)
chain: MSKPELKEDKMLEVHFVGDDDVLNHILDREGGAKLKKERAQLLVNPKKIIKKPEYDLEEDDQEVLKDQNYVEIMGRDVQESLKNGSATGGGNKVYSFQNRKHSEKMAKLASELAKTPQKSVSFSLKNDPEITINVPQSSKGHSASDKVQPKNNDKSEFLSTAPRSLRKRLIVPRSHSDSESEYSASNSEDDEGVAQEHEEDTNAVIFSQKIQAQNRVVSAPVGKETPSKRMKRDKTSDLVEEYFEAHSSSKVLTSDRTLQKLKRAKLDQQTLRNLLSKVSPSFSAELKQLNQQYEKLFHKWMLQLHLGFNIVLYGLGSKRDLLERFRTTMLQDSIHVVINGFFPGISVKSVLNSITEEVLDHMGTFRSILDQLDWIVNKFKEDSSLELFLLIHNLDSQMLRGEKSQQIIGQLSSLHNIYLIASIDHLNAPLMWDHAKQSLFNWLWYETTTYSPYTEETSYENSLLVKQSGSLPLSSLTHVLRSLTPNARGIFRLLIKYQLDNQDNPSYIGLSFQDFYQQCREAFLVNSDLTLRAQLTEFRDHKLIRTKKGTDGVEYLLIPVDNGTLTDFLEKEEEEA
Turning to B1, in assay [1], the binding entry is given as “binds”.

B2: GNL3/nucleostemin (protein, UniProt Q9BVP2 1-549)
chain: MKRPKLKKASKRMTCHKRYKIQKKVREHHRKLRKEAKKRGHKKPRKDPGVPNSAPFKEALLREAELRKQRLEELKQQQKLDRQKELEKKRKLETNPDIKPSNVEPMEKEFGLCKTENKAKSGKQNSKKLYCQELKKVIEASDVVLEVLDARDPLGCRCPQVEEAIVQSGQKKLVLILNKSDLVPKENLESWLNYLKKELPTVVFRASTKPKDKGKITKRVKAKKNAAPFRSEVCFGKEGLWKLLGGFQETCSKAIRVGVIGFPNVGKSSIINSLKQEQMCNVGVSMGLTRSMQVVPLDKQITIIDSPSFIVSPLNSSSALALRSPASIEVVKPMEAASAILSQADARQVVLKYTVPGYRNSLEFFTVLAQRRGMHQKGGIPNVEGAAKLLWSEWTGASLAYYCHPPTSWTPPPYFNESIVVDMKSGFNLEELEKNNAQSIRAIKGPHLANSILFQSSGLTNGIIEEKDIHEELPKRKERKQEEREDDKDSDQETVDEEVDENSSGMFAAEETGEALSEETTAGEQSTRSFILDKIIEEDDAYDFSTDYV
In the case of B2, the binding result in assay [2] and in assay [3] was “binds” each time.

B3: GNL3-WT tagged with FLAG (protein, UniProt Q9BVP2 1-549)
chain: MKRPKLKKASKRMTCHKRYKIQKKVREHHRKLRKEAKKRGHKKPRKDPGVPNSAPFKEALLREAELRKQRLEELKQQQKLDRQKELEKKRKLETNPDIKPSNVEPMEKEFGLCKTENKAKSGKQNSKKLYCQELKKVIEASDVVLEVLDARDPLGCRCPQVEEAIVQSGQKKLVLILNKSDLVPKENLESWLNYLKKELPTVVFRASTKPKDKGKITKRVKAKKNAAPFRSEVCFGKEGLWKLLGGFQETCSKAIRVGVIGFPNVGKSSIINSLKQEQMCNVGVSMGLTRSMQVVPLDKQITIIDSPSFIVSPLNSSSALALRSPASIEVVKPMEAASAILSQADARQVVLKYTVPGYRNSLEFFTVLAQRRGMHQKGGIPNVEGAAKLLWSEWTGASLAYYCHPPTSWTPPPYFNESIVVDMKSGFNLEELEKNNAQSIRAIKGPHLANSILFQSSGLTNGIIEEKDIHEELPKRKERKQEEREDDKDSDQETVDEEVDENSSGMFAAEETGEALSEETTAGEQSTRSFILDKIIEEDDAYDFSTDYV
As to B3, the binding entry in assay [3] was “binds”.
